The name of at least one read-out is uncertain.
Test: Solubility in solvent systems of Examples 27-31 of U.S. Pat. No. 6,383,471
Details: 27 + 70% water; calculated for dilution to 70% of water content

CC(=O)N1CCN(c2ccc(OCC3COC(Cn4ccnc4)(c4ccc(Cl)cc4Cl)O3)cc2)CC1 (stereo not shown) [ketoconazole]
Solubilized miconazole / ketoconazole (calculated solubilizing effect): 14.81 mg/mL

From patent publication US20090253712A1, “AQUEOUS SOLVENT SYSTEM FOR SOLUBILIZATION OF AZOLE COMPOUNDS” (SEMMELWEIS EGYETEM, priority 2008, published 2009)
